For at least one entry, the source does not settle the construct or the ends of the probe. At least one result comes from cells or an extract, where the contact may be indirect. At least one verdict was read from the data and is not stated in words by the source.

Sequences of proteins named here, by UniProt entry; tags and fusion partners are left off. Residues count along the entry.
UniProt Q13308, 31-1070: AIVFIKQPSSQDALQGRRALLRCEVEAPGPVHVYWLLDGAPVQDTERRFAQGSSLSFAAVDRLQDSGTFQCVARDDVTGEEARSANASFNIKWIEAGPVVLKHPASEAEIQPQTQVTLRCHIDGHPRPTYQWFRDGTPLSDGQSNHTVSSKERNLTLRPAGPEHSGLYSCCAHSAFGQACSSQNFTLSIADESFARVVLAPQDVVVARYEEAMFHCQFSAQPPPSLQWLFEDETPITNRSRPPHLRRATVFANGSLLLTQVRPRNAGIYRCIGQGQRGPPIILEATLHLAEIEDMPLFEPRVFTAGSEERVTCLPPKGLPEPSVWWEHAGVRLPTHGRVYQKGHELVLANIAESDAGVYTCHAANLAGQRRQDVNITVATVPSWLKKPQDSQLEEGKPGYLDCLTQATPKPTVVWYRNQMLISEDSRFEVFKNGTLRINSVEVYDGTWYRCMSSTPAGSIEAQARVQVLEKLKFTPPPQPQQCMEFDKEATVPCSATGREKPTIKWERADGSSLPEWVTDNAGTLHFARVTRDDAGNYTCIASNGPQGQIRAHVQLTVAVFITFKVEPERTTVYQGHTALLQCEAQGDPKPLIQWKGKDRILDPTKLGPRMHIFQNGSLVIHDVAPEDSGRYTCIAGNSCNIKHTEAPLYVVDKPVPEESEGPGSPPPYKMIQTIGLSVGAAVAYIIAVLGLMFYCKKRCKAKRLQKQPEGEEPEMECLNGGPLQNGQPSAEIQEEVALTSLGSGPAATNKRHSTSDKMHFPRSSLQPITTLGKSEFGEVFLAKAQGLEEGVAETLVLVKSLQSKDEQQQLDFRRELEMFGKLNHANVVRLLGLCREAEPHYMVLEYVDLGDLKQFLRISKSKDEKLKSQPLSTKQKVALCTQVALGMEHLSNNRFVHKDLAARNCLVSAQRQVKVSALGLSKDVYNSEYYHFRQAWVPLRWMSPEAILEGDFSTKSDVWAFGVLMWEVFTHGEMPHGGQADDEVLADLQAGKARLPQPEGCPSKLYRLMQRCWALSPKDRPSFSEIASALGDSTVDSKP

Results on one sequence are retold here after paper PMC10634091.

The target in the series is PTK7 (membrane protein on HeLa cells) (human (HeLa cells)) (UniProt Q13308). Description: flow cytometry and confocal microscopy on cells. As to conditions: 200 nM (printed 200 nmol), no binding to Ramos cells, 5' amino coupled to poly(maleic anhydride-alt-1-octadecene), multivalent micelle, Intact cells, 200 uL of 200 nM (printed 200 nmol) FITC-labelled aptamer, 1 h at 4 C in the dark, buffer and pH not stated, protein on the cell surface, label: 3' FITC, single-stranded DNA.

As for “ATCTAACTGCTGCGCCGCCGGGAAAATACTGTACGGTTAGA [C18-sgc8-FITC (C18PMH-sgc8 micelle)]”, the binding result is “binds”.
